Reference: US9125388B2, “Biological control” (Isis Innovation Limited, priority 1999, dated 2015)
Values joined by “and” are separate entries in the source; they are usually repeats but may differ in a detail not shown here. Identical values can stand only once. This continues a long series; more values of the same kind are listed elsewhere.

How the values were obtained:
Format in all cases: in vivo, Drosophila melanogaster
[1] = tested on: Yp3 tTa, tRe Ras64B^V12 on the 2nd chromosome; assay: Recombinant chromosome experiments / maternal transmission of Tc (Table 1): parents raised on supplement, progeny on normal food, adults by sex; conditions: 25° C.
Method: (§1) 40-45 young females and 20-25 young males raised at 25° C. upon food with the indicated tetracycline supplement were allowed to mate, then transferred to normal (tetracycline-free) food after 3-4 days. These flies were transferred to fresh vials of normal food every day for 12 days, then removed on the 13th day. All the vials were incubated at 25° C. while the progeny developed. The numbers of male and female progeny emerging as adults in each vial were recorded.
(§2) A standard range of additive concentrations were used in the following experiments (0.05-20 μg/ml). […] (=“not done”)
(§3) All the preceding experiments were performed at 25° C., the standard temperature for Drosophila culture. However, the insects in the wild would clearly be exposed to varying temperatures, so we investigated the extent to which the efficiency of the system is affected by temperature. As with the recombinant chromosome experiments, 40-45 young virgin females and 20-25 young males raised at 25° C. upon food with the indicated tetracycline supplement were allowed to mate, then transferred to normal (tetracycline-free) food after 3-4 days. These flies were transferred to fresh vials of normal food every day. The numbers of male and female progeny emerging as adults in each vial were recorded. These experiments were performed at either 18° C. or 29° C.
We used a strain of Drosophila in which females, but not males, require Tc for viability.
A strain homozygous for second chromosome insertions of both Yp3-tTA and tRe-Ras64B^V12 was tested for the effect of parental dietary Tc. 40-45 young females and 20-25 young males raised at 25° C. upon food with the indicated tetracycline supplement were allowed to mate, then transferred to normal (tetracycline-free) food after 3-4 days. These flies were transferred to fresh vials of normal food every day for 12 days, and then removed on the 13th day. All the vials were incubated at 25° C. while the progeny developed. The total numbers of male and female progeny emerging as adults were recorded.

[2] = tested on: Sxl^pe-tTA, tRE-Ras64B^V12 on the third chromosome; assay: Recombinant chromosome experiments: parents raised on supplement, progeny on normal food, adults by sex (25, 18 or 29° C.); conditions: 25° C., Day 1-12 on tetracycline-free food, listed as Tet.
Method: as §1, §2, §3

[3] = tested on: Sxl^pe-tTA, tRE-Msl-2^Nopu on the X chromosome; assay: as above; conditions: 25° C., Day 1-12 on tetracycline-free food
Method: as §1, §2, §3

[4] = parents raised on Tc 100 μg/ml, Day 9 on normal food
[5] = parents raised on Tc 100 μg/ml, Day 10 on normal food
[6] = parents raised on Tc 100 μg/ml, Day 11 on normal food
[7] = parents raised on Tc 100 μg/ml, Day 12 on normal food
[8] = parents raised on Tc 100 μg/ml, Total of Days 1-12 on normal food
[9] = parents raised on Tc 500 μg/ml, Day 8 on normal food
[10] = parents raised on Tc 500 μg/ml, Day 9 on normal food
[11] = parents raised on Tc 500 μg/ml, Day 10 on normal food
[12] = parents raised on Tc 500 μg/ml, Day 11 on normal food
[13] = parents raised on Tc 500 μg/ml, Day 12 on normal food
[14] = parents raised on Tc 500 μg/ml, Total of Days 1-12 on normal food
[15] = parents raised on Tc 1000 μg/ml, Day 8 on normal food
[16] = parents raised on Tc 1000 μg/ml, Day 9 on normal food
[17] = parents raised on Tc 1000 μg/ml, Day 10 on normal food
[18] = parents raised on Tc 1000 μg/ml, Day 11 on normal food
[19] = parents raised on Tc 1000 μg/ml, Day 12 on normal food
[20] = parents raised on Tc 1000 μg/ml, Total of Days 1-12 on normal food
[21] = parents raised on Tc 2000 μg/ml, Day 8 on normal food
[22] = parents raised on Tc 2000 μg/ml, Day 9 on normal food
[23] = parents raised on Tc 2000 μg/ml, Day 10 on normal food
[24] = parents raised on Tc 2000 μg/ml, Day 11 on normal food
[25] = parents raised on Tc 2000 μg/ml, Day 12 on normal food
[26] = parents raised on Tc 2000 μg/ml, Total of Days 1-12 on normal food
[27] = parents raised on Tet. 1000 μg/ml

SMILES: CN(C)[C@@H]1C(O)=C(C(N)=O)C(=O)[C@@]2(O)C(O)=C3C(=O)c4c(O)cccc4[C@@](C)(O)[C@H]3C[C@@H]12 [Tetracycline, tetracycline]
- ♀ progeny emerging as adults [1, 4]: 0
- ♂ progeny emerging as adults [1, 4]: 92
- ♀ progeny emerging as adults [1, 5]: 0
- ♂ progeny emerging as adults [1, 5]: 104
- ♀ progeny emerging as adults [1, 6]: 0
- ♂ progeny emerging as adults [1, 6]: 94
- ♀ progeny emerging as adults [1, 7]: 0
- ♂ progeny emerging as adults [1, 7]: 115
- ♀ progeny emerging as adults [1, 8]: 0
- ♂ progeny emerging as adults [1, 8]: 1407
- ♀ progeny emerging as adults [1, 9]: 0
- ♂ progeny emerging as adults [1, 9]: 141
- ♀ progeny emerging as adults [1, 10]: 0
- ♂ progeny emerging as adults [1, 10]: 144
- ♀ progeny emerging as adults [1, 11]: 0
- ♂ progeny emerging as adults [1, 11]: 123
- ♀ progeny emerging as adults [1, 12]: 0
- ♂ progeny emerging as adults [1, 12]: 104
- ♀ progeny emerging as adults [1, 13]: 0
- ♂ progeny emerging as adults [1, 13]: 124
- ♀ progeny emerging as adults [1, 14]: 2
- ♂ progeny emerging as adults [1, 14]: 1376
- ♀ progeny emerging as adults [1, 15]: 0
- ♂ progeny emerging as adults [1, 15]: 138
- ♀ progeny emerging as adults [1, 16]: 0
- ♂ progeny emerging as adults [1, 16]: 105
- ♀ progeny emerging as adults [1, 17]: 0
- ♂ progeny emerging as adults [1, 17]: 124
- ♀ progeny emerging as adults [1, 18]: 0
- ♂ progeny emerging as adults [1, 18]: 115
- ♀ progeny emerging as adults [1, 19]: 0
- ♂ progeny emerging as adults [1, 19]: 114
- ♀ progeny emerging as adults [1, 20]: 18
- ♂ progeny emerging as adults [1, 20]: 1409
- ♀ progeny emerging as adults [1, 21]: 0
- ♂ progeny emerging as adults [1, 21]: 114
- ♀ progeny emerging as adults [1, 22]: 0
- ♂ progeny emerging as adults [1, 22]: 123
- ♀ progeny emerging as adults [1, 23]: 0
- ♂ progeny emerging as adults [1, 23]: 132
- ♀ progeny emerging as adults [1, 24]: 0
- ♂ progeny emerging as adults [1, 24]: 115
- ♀ progeny emerging as adults [1, 25]: 0
- ♂ progeny emerging as adults [1, 25]: 107
- ♀ progeny emerging as adults [1, 26]: 78
- ♂ progeny emerging as adults [1, 26]: 1404
- Male progeny per daily vial ([2]; parents raised on Tet. 0.1 μg/ml): 142 and 147 and 130 and 103 and 150 and 98 and 149 and 134
- Male progeny per daily vial ([2]; parents raised on Tet. 1 μg/ml): 91 and 99 and 149 and 148 and 86
- Male progeny per daily vial ([2]; parents raised on Tet. 5 μg/ml): 99 and 106 and 95 and 134 and 93 and 148 and 142
- Male progeny per daily vial ([2]; parents raised on Tet. 20 μg/ml): 149 and 150 and 89 and 140 and 106 and 97 and 142
- Male progeny per daily vial ([2]; parents raised on Tet. 100 μg/ml): 93 and 87 and 94 and 103 and 142
- Male progeny per daily vial ([2]; parents raised on Tet. 500 μg/ml): 98 and 90 and 140 and 120 and 148 and 100 and 95
- Male progeny per daily vial [2, 27]: 92 and 150 and 145 and 110 and 106 and 87 and 91
- Male progeny per daily vial ([2]; parents raised on Tet. 2000 μg/ml): 131 and 126
- Male progeny per daily vial ([3]; parents raised on Tet. 0.1 μg/ml, listed as Tet.): 104 and 141 and 114 and 136
- Male progeny per daily vial ([3]; parents raised on Tet. 1 μg/ml, listed as Tet.): 120 and 171 and 118 and 91 and 99 and 134
- Male progeny per daily vial ([3]; parents raised on Tet. 5 μg/ml, listed as Tet.): 155 and 163 and 130 and 110 and 159 and 156 and 91 and 84
- Male progeny per daily vial ([3]; parents raised on Tet. 20 μg/ml, listed as Tet.): 103 and 78 and 76 and 98 and 94 and 79 and 89
- Male progeny per daily vial ([3]; parents raised on Tet. 100 μg/ml, listed as Tet.): 79 and 157 and 154 and 134 and 145 and 130
- Male progeny per daily vial ([3]; parents raised on Tet. 500 μg/ml, listed as Tet.): 136 and 102
- Male progeny per daily vial [3, 27]: 115
- Male progeny per daily vial ([3]; parents raised on Tet. 2000 μg/ml, listed as Tet.): 97 and 95 and 153 and 164 and 158 and 103
